According to the supplement of paper PMC12067093, “Discovery and optimisation of a covalent ligand for TRIM25 and its application to targeted protein ubiquitination” (Chemical Science, 2025):
The list shows a part of the results.

Sequences of proteins named here, by UniProt entry; tags and fusion partners are left off. A change or cut given only in a name is not applied to a line headed by its entry.
UniProt Q15149: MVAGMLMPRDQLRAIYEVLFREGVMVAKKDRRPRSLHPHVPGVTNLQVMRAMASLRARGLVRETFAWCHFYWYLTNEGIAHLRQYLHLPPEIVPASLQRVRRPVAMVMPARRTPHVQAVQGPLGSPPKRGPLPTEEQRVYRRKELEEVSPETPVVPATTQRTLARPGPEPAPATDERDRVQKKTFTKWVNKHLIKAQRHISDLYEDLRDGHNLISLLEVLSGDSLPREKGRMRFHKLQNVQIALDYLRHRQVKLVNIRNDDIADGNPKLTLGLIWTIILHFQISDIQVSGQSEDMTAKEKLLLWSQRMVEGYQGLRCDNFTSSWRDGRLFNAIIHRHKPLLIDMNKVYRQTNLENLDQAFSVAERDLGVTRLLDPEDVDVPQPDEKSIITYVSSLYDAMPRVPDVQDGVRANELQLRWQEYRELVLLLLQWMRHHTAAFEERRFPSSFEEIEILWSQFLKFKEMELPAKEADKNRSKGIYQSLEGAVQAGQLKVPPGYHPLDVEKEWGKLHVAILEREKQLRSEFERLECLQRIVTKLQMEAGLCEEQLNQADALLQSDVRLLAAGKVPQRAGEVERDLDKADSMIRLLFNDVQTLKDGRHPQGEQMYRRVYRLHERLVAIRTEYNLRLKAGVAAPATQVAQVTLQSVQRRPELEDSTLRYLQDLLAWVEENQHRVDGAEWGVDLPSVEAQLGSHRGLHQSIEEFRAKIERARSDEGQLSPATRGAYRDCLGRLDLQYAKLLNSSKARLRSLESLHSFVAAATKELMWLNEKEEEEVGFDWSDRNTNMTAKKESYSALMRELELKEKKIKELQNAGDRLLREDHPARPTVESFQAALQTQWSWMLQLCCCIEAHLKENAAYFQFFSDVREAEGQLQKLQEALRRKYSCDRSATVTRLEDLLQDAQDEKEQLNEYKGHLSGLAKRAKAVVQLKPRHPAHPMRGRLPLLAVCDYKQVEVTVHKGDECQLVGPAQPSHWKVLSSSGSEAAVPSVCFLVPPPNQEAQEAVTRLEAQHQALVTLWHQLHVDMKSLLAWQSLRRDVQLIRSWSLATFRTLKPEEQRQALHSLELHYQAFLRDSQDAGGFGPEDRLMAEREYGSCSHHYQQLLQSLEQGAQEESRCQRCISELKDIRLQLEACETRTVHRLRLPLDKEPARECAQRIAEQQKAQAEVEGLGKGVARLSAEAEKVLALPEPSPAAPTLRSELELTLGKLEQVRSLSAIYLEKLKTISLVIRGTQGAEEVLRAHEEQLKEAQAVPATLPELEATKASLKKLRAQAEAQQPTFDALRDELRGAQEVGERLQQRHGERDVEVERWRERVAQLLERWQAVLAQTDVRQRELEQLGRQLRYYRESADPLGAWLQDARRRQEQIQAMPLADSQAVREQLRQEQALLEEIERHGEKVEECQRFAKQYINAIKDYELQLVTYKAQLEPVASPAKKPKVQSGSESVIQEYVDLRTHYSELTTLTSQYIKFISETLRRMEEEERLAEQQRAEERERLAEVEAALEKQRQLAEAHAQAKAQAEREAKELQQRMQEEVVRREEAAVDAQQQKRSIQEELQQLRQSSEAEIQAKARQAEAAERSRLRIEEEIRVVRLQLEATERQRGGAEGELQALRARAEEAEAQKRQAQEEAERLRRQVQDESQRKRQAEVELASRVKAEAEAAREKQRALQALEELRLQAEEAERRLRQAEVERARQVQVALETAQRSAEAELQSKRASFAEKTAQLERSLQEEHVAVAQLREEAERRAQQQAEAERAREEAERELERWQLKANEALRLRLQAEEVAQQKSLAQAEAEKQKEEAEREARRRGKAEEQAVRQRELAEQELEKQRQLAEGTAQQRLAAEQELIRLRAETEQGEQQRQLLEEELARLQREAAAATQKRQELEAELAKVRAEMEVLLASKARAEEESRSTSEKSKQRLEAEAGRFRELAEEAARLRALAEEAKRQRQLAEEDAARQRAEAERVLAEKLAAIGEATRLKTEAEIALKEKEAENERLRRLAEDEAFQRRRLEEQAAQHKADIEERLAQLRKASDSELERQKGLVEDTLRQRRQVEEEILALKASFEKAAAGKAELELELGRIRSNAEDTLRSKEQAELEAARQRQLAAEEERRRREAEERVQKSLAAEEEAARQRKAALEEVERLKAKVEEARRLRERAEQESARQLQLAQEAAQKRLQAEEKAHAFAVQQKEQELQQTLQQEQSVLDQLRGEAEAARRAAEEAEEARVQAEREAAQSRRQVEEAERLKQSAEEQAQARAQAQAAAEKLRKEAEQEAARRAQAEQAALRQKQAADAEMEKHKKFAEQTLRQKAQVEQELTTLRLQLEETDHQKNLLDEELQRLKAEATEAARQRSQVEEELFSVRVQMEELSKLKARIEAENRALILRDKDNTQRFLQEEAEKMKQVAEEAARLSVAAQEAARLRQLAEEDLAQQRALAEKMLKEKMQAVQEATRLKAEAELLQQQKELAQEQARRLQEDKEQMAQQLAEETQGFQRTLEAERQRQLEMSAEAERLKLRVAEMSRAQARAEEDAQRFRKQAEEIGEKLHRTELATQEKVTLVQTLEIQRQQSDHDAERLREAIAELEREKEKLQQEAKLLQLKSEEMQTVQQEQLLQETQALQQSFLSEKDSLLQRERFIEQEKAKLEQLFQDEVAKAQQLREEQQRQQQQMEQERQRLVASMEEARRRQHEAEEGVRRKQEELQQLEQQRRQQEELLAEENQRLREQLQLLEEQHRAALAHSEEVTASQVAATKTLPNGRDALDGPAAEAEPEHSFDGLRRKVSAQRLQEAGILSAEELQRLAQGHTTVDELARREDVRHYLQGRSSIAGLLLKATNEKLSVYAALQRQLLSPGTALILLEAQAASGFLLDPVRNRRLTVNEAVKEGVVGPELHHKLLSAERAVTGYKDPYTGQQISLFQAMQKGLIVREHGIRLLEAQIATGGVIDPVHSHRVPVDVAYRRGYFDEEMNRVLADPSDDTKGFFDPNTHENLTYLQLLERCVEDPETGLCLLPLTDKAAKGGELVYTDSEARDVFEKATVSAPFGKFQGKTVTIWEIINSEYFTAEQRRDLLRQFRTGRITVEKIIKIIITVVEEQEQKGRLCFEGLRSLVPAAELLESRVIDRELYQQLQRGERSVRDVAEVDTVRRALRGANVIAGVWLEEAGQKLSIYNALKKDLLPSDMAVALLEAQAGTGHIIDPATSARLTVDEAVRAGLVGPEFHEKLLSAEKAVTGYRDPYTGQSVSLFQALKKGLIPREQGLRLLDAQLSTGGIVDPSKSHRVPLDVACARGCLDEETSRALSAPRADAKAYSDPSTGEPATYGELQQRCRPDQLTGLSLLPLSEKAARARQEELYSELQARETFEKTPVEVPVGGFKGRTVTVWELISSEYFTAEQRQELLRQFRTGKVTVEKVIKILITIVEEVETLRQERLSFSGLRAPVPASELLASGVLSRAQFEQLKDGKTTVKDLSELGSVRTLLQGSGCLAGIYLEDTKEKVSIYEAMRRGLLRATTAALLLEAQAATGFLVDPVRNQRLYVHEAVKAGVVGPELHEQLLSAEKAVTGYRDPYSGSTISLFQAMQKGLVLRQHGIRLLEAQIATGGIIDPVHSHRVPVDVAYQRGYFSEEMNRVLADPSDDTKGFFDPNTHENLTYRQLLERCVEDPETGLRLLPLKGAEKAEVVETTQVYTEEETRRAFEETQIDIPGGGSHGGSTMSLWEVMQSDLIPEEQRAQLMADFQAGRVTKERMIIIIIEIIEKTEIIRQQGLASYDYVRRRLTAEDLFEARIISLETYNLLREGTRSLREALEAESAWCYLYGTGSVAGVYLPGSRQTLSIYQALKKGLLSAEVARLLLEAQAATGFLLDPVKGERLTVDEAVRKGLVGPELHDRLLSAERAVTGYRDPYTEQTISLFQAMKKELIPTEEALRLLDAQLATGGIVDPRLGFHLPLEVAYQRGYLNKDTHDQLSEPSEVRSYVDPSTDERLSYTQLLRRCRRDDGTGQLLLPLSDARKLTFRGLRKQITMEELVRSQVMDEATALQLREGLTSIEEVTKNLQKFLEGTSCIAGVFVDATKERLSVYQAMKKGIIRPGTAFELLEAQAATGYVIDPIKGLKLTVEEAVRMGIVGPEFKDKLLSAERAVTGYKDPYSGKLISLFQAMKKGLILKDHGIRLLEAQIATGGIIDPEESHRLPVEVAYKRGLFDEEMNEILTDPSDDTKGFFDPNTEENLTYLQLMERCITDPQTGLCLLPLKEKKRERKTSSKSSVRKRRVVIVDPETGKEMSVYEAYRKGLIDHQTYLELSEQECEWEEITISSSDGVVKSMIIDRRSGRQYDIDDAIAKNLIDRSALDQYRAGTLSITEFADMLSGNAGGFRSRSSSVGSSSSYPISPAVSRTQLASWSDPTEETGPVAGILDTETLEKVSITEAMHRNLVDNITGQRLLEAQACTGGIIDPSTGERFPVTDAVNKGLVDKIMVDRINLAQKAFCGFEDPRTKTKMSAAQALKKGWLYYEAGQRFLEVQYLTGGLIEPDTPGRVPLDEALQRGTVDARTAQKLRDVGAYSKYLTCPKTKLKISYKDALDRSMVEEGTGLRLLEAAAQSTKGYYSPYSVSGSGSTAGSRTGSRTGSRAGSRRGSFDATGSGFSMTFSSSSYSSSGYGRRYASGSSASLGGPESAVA
UniProt Q03405, whole entry, looked up: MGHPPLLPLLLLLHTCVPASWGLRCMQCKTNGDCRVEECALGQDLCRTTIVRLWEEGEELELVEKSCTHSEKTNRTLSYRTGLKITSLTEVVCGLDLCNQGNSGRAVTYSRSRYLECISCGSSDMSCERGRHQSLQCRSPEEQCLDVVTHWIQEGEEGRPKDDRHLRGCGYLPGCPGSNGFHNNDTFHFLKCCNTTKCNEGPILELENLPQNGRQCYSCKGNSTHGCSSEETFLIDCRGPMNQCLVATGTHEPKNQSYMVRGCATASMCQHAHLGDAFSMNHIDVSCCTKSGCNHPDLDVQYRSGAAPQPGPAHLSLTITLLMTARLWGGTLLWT
UniProt Q10713: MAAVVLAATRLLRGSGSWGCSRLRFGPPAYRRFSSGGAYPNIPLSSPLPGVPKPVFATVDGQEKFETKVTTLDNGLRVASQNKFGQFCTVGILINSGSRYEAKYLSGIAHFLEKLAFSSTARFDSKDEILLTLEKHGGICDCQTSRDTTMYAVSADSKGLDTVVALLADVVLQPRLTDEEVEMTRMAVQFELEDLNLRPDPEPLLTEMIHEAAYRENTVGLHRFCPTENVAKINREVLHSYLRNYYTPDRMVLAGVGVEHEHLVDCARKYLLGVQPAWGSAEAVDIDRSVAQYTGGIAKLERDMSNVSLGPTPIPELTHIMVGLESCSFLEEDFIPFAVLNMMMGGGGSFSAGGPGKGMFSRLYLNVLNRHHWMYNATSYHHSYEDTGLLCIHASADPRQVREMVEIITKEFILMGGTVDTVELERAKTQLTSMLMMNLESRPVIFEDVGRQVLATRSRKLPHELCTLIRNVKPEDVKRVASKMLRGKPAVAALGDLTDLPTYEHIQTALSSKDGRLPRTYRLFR
UniProt P08567: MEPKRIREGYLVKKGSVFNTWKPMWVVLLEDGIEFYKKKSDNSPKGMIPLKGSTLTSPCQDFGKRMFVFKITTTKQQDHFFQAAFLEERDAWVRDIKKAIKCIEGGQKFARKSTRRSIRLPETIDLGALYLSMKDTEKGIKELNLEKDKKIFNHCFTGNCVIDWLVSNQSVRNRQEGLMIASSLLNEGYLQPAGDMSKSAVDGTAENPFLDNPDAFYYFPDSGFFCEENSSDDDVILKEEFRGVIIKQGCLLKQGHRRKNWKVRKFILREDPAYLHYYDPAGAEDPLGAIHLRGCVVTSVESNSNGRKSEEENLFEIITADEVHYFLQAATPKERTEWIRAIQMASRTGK
UniProt Q13526, whole entry, looked up: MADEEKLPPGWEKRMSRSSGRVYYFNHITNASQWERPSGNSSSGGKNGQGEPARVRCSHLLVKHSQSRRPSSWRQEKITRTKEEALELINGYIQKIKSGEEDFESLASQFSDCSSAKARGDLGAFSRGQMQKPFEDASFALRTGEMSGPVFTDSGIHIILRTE
UniProt Q8IV08: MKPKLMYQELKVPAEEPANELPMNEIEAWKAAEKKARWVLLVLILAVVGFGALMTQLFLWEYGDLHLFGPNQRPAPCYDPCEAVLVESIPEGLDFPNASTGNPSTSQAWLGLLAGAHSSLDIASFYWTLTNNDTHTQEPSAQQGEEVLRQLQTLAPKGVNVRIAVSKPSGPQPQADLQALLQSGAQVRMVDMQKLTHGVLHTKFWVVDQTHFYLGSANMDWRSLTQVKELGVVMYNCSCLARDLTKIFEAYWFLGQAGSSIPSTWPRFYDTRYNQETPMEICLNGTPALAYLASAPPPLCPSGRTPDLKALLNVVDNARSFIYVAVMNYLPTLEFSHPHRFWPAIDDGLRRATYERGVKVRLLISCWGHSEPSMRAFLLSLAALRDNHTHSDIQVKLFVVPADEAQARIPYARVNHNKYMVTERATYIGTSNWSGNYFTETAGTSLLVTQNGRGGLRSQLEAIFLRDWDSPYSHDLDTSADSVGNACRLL

Compound: Cc1cc(ccc1-c1ccccc1)C(=O)N1CCCN(CC1)C(=O)CCl [compound 10]
Test: probe-labelled cysteine peptide fold change vs DMSO (competition) (log2 fold change); higher = less target engagement (more negative = stronger competition)
Conditions: THP-1, incubation time: 4 h
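Note: competitive profiling in live THP-1 cells: cysteine peptides tagged with an iodoacetamide desthiobiotin (IA-DTB) probe, intensity after compound treatment relative to DMSO-treated cells.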

Target | probe-labelled cysteine peptide fold change (10 µM) | probe-labelled cysteine peptide fold change (50 µM)
PMPCB_O75439_419_TNMLLQLDGSTPICEDIGR (UniProt O75439) | -0.102 | 0.164
PLEC_Q15149_3295_VPLDVACAR (UniProt Q15149) | -0.295 | -0.415
PLEC_Q15149_950_LPLLAVCDYK (UniProt Q15149) | 0.0855 | -0.00812
PLEC_Q15149_317_CDNFTSSWR (UniProt Q15149) | -0.0309 | 0.148
PLAUR_Q03405_39_VEECALGQDLCR (UniProt Q03405) | -0.246 | -0.236
PIKFYVE_Q9Y2I7_807_MTQGDLVMSMDQLLTKPHLGTCHK (UniProt Q9Y2I7) | -0.034 | -0.209
PLCB2_Q00722_188_RVEAALSACHLPK (UniProt Q00722) | -0.0468 | 0.0994
PLXNB2_O15031_770_SDCSLCR (UniProt O15031) | 0.0427 | 0.0553
PIR_O00625_79_GFETVSYLLEGGSMAHEDFCGHTGK (UniProt O00625) | 0.0123 | -0.175
PMS2_P54278_653_ICPGENQAAEDELRK (UniProt P54278) | 0.0156 | -0.157
PLOD1_Q02809_369_NMGADLCR (UniProt Q02809) | 0.108 | -0.0906
PLOD3_O60568_698_FLRYDCVISSPR (UniProt O60568) | 0.103 | -0.168
PLA2G4A_P47712_726_CSVSLSNVEAR (UniProt P47712) | -0.188 | -0.576
PMPCA_Q10713_266_MVLAGVGVEHEHLVDCAR (UniProt Q10713) | -0.00401 | 0.131
PLXNB2_O15031_279_DPDIHAAAFGTCLAASVAAPGSGR (UniProt O15031) | -0.288 | -0.144
PML_P29590_129_QIVDAQAVCTR (UniProt P29590) | -0.0117 | -0.156
PLXND1_Q9Y4D7_345_KLTESYIQLGLQCAGGAGR (UniProt Q9Y4D7) | -0.284 | -0.519
PLEC_Q15149_4071_FLEGTSCIAGVFVDATK (UniProt Q15149) | 0.12 | 0.129
PLEC_Q15149_4245+4254_CITDPQTGLCLLPLK (UniProt Q15149) | 0.808 | 0.435
PLCG1_P19174_417_EHAFVASEYPVILSIEDHCSIAQQR (UniProt P19174) | -0.274 | -0.19
PKM_P14618_152_CDENILWLDYK (UniProt P14618) | 0.136 | 0.167
PLEKHA2_Q9HB19_81_TPFCFVINALSQR (UniProt Q9HB19) | 0.0526 | 0.0817

Target | probe-labelled cysteine peptide fold change (10 µM) | probe-labelled cysteine peptide fold change (50 µM)
PLEK_P08567_155+160_IFNHCFTGNCVIDWLVSNQSVR (UniProt P08567) | 0.0766 | -0.76
PLK1_P53350_544_LILCPLMAAVTYIDEKR (UniProt P53350) | -0.0589 | -0.19
PIN1_Q13526_57_CSHLLVK (UniProt Q13526) | -0.109 | -0.172
PLCB2_Q00722_1108_QAACLEQIR (UniProt Q00722) | 0.455 | 0.209
PLIN2_Q99541_302_SIGYDDTDESHCAEHIESR (UniProt Q99541) | -0.00068 | -0.468
PITRM1_Q5JRX3_477_QCLQENPK (UniProt Q5JRX3) | -0.173 | 0.0942
PLEK_P08567_102_CIEGGQK (UniProt P08567) | -0.12 | -0.00998
PML_P29590_140+143_ESADFWCFECEQLLCAK (UniProt P29590) | 0.0944 | -0.116
PLAA_Q9Y263_278_LPAQSIWCCCVLDNGDIVVGASDGIIR (UniProt Q9Y263) | 0.0366 | 0.0256
PMS1_P54277_868_EVYECRPR (UniProt P54277) | -0.0785 | 0.142
PNP_P00491_206_ELQEGTYVMVAGPSFETVAECR (UniProt P00491) | 0.144 | 0.0981
PITHD1_Q9GZP4_42_LQCLNESR (UniProt Q9GZP4) | -0.143 | -0.0881
PIK3R4_Q99570_1180_FQLPISSHCHPSR (UniProt Q99570) | 0.15 | 0.129
PLBD2_Q8NHP8_342_GCVLEWVR (UniProt Q8NHP8) | -0.405 | 0.105
PLCB2_Q00722_216_SFLMSLCPRPEIDEIFTSYHAK (UniProt Q00722) | 0.181 | -0.0219
PKM_P14618_31_PHSEAGTAFIQTQQLHAAMADTFLEHMCR (UniProt P14618) | 0.0837 | 0.0247
PLD3_Q8IV08_487_DWDSPYSHDLDTSADSVGNACR (UniProt Q8IV08) | -0.23 | -0.151
PLEKHB2_Q96CS7_75_DCMLQIVCR (UniProt Q96CS7) | -0.0309 | -0.0334
PKM_P14618-2_423_CLAAALIVLTESGR (UniProt P14618) | 0.128 | 0.0978
PLRG1_O43660_338_CQAAEPQIITGSHDTTIR (UniProt O43660) | -0.149 | 0.441
PKM_P14618_423_CCSGAIIVLTK (UniProt P14618) | -0.268 | -0.801
PLEKHF2_Q9H8W4_129_CVTDLLSK (UniProt Q9H8W4) | 0.227 | 0.24

Target | probe-labelled cysteine peptide fold change (10 µM) | probe-labelled cysteine peptide fold change (50 µM)
PNKP_Q96T60_353_SGPLCLPESR (UniProt Q96T60) | -0.232 | -0.176
PLAA_Q9Y263_26_GLVCCAYPPGAFVSVSR (UniProt Q9Y263) | 0.0151 | -0.407
PIP4P1_Q86T03_104_CGVCNEATPIK (UniProt Q86T03) | 0.0184 | -0.171
PLD3_Q8IV08_366_LLISCWGHSEPSMR (UniProt Q8IV08) | -0.305 | 0.13
PKM_P14618_31_SKPHSEAGTAFIQTQQLHAAMADTFLEHMCR (UniProt P14618) | 0.0631 | -0.0423
PIK3CD_O00329_90_LCDVQPFLPVLR (UniProt O00329) | -0.171 | -0.318
PITPNM1_O00562_889_ERPQLAECEEPSIYSPAFPR (UniProt O00562) | -0.0268 | 0.0522
PLCL2_Q9UPR0_794_GDVVDPYVYVEIHGIPADCAEQR (UniProt Q9UPR0) | -0.457 | -0.334
PLCG2_P16885_1090_SIACPFVEVEICGAEYDNNK (UniProt P16885) | -0.173 | -0.187
PNPT1_Q8TCS8_242_SQIVMLEASAENILQQDFCHAIK (UniProt Q8TCS8) | 0.00909 | 0.0201
PIP4K2A_P48426_343_CHENSPR (UniProt P48426) | -0.141 | -0.00428
PLEKHF2_Q9H8W4_186_CGFVVCGPCSEK (UniProt Q9H8W4) | -0.0103 | -0.0691
PMS1_P54277_243_CDADHSFTSLSTPER (UniProt P54277) | 0.0112 | -0.176
PLD1_Q13393_876_AELGNQWINYISFCGLR (UniProt Q13393) | 0.149 | 0.145
PLCG1_P19174_646_CNEFEMR (UniProt P19174) | -0.125 | -0.465
PKN1_Q16512_317_LAGPFPATHYSTLCK (UniProt Q16512) | 0.0998 | -0.443
PMPCA_Q10713_140+142_HGGICDCQTSR (UniProt Q10713) | 0.0675 | -0.831
PITPNB_P48739_94_AWNAYPYCR (UniProt P48739) | 0.0131 | 0.0528
PLXNB2_O15031_948_FGAQLQCVTGPQATR (UniProt O15031) | -0.153 | 0.18
PLA2G4A_P47712_634_DCPTIIHFVLANINFR (UniProt P47712) | -0.152 | -0.426
PNPT1_Q8TCS8_359_CDGRDLTSLR (UniProt Q8TCS8) | -0.161 | -0.394
PIN1_Q13526_113_SGEEDFESLASQFSDCSSAK (UniProt Q13526) | -0.176 | -0.424

As a short view, part of the list above.
Target | probe-labelled cysteine peptide fold change (10 µM) | probe-labelled cysteine peptide fold change (50 µM)
PLXNB2_O15031_948_FGAQLQCVTGPQATR (UniProt O15031) | -0.153 | 0.18
PLA2G4A_P47712_634_DCPTIIHFVLANINFR (UniProt P47712) | -0.152 | -0.426
PNPT1_Q8TCS8_359_CDGRDLTSLR (UniProt Q8TCS8) | -0.161 | -0.394
PIN1_Q13526_113_SGEEDFESLASQFSDCSSAK (UniProt Q13526) | -0.176 | -0.424

(next part)

Target | probe-labelled cysteine peptide fold change (10 µM) | probe-labelled cysteine peptide fold change (50 µM)
PLXNB2_O15031_637_WTCQWDLR (UniProt O15031) | -0.115 | -0.0907
PLA2G4C_Q9UP65_351_KTGICASK (UniProt Q9UP65) | -0.289 | -1.38
PML_P29590_479+484_CSQTQCPR (UniProt P29590) | -0.494 | -1.17
PLXNB2_O15031_1149_TLTETDLYCEPPEVQPPPK (UniProt O15031) | -0.174 | -0.00622
PLCG1_P19174_960_IALELSELVVYCR (UniProt P19174) | 0.248 | 0.143
PISD_Q9UG56_300_ELFCHNER (UniProt Q9UG56) | -0.0321 | -0.201
PIK3R1_P27986_167_QLLDCDTPSVDLEMIDVHVLADAFKR (UniProt P27986) | 0.0273 | 0.0689
PLK1_P53350_405_QEEAEDPACIPIFWVSK (UniProt P53350) | 0.00966 | 0.0835
PINX1_Q96BK5_145_SKTDLDCIFGK (UniProt Q96BK5) | -0.232 | -0.582
PML_P29590_338_CYASDQEVLDMHGFLR (UniProt P29590) | -0.137 | -0.0376
PLAUR_Q03405_46_VEECALGQDLCR (UniProt Q03405) | -0.361 | -0.36
PLEC_Q15149_3667_CVEDPETGLR (UniProt Q15149) | 0.0369 | 0.143
PMS2_P54278_591_EEILSSSDICQK (UniProt P54278) | -0.109 | -0.181
PLG_P00747_398_KCQSWSSMTPHR (UniProt P00747) | -0.213 | -0.484
PMPCB_O75439_265_FHFGDSLCTHK (UniProt O75439) | -0.178 | -0.289
PNPT1_Q8TCS8_395_GQTQVLCTVTFDSLESGIK (UniProt Q8TCS8) | 0.148 | 0.502
PIK3CD_O00329_500_HSECVHVTEEEQLQLR (UniProt O00329) | -0.182 | -0.107
PM20D2_Q8IYS1_303_AAALASGCTVEIK (UniProt Q8IYS1) | 0.0905 | 0.222
PLEKHF2_Q9H8W4_158_TPSNEHAAVWVPDSEATVCMR (UniProt Q9H8W4) | 0.0069 | -0.416
